Measured values as given in the supplement of paper PMC7024190.
Where a name gives a salt, the structure may show the parent alone. This is one part of the list. Repeats in this data set agree poorly, so a single value says little.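 The cells were human embryonic kidney cells carrying a Renilla luciferase gene, driven by the HSV-TK promoter, on a plasmid put in briefly by transfection. This is the first-round screen of about ten thousand compounds, looking for ones that raise reporter output.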

Each compound was assayed on HEK 293FT (assay: log relative Renilla luciferase luminescence (reporter expression vs reference, reference not stated) (log (base not stated)); higher = higher recombinant reporter expression). Settings: 10 µM; time after transfection 48 h.

Row | Structure (SMILES) | log
1 | CC1(C)[C@H](C(=O)O)N2C(=O)C[C@H]2S1(=O)=O [Sulbactam] | -0.1
2 | Cc1ncc(CO)c(CO)c1O [Pyridoxine hydrochloride] | -0.219
3 | CCc1c(C)[nH]c2c1C(=O)C(CN1CCOCC1)CC2 (stereo not given) [Molindone hydrochloride] | -0.00598
4 | CCC1(c2ccccc2)NC(=O)N(C)C1=O (stereo not given) [Mephenytoin] | 0.241
5 | CC1=C(/C=C/C(C)=C/C=C/C(C)=C/C(=O)O)C(C)(C)CCC1 [Retinoic acid] | 0.0562
6 | NC(=O)c1cc[n+](CC2=C(C(=O)[O-])N3C(=O)[C@@H](NC(=O)[C@@H](c4ccccc4)S(=O)(=O)O)[C@H]3SC2)cc1 [Cefsulodin sodium salt] | -0.142
7 | CC(=O)Oc1ccccc1C(=O)O [Acetylsalicylic acid] | 0.0179
8 | N=C(N)NS(=O)(=O)c1ccc(N)cc1 [Sulfaguanidine] | 0.0787
9 | COc1cc2nc(N(C)CCCNC(=O)C3CCCO3)nc(N)c2cc1OC (stereo not given) [Alfuzosin hydrochloride] | -0.367
10 | Clc1ccc(Cn2c(CN3CCCC3)nc3ccccc32)cc1 [Clemizole hydrochloride] | 0.101
11 | N[C@@H]1CONC1=O [D-cycloserine] | 0.173
12 | O=C(O)COCCN1CCN(C(c2ccccc2)c2ccc(Cl)cc2)CC1 (stereo not given) [Cetirizine dihydrochloride] | 0.0769
13 | C#C[C@]1(OC(C)=O)CC[C@H]2[C@@H]3CCC4=CC(=NO)CC[C@@H]4[C@H]3CC[C@@]21CC (mixture of isomers) [Norgestimate] | 0.0364
14 | Clc1ccc(CO/N=C(\Cn2ccnc2)c2ccc(Cl)cc2Cl)c(Cl)c1 [Oxiconazole Nitrate] | 0.129
15 | CC(=O)O[C@]1(C(C)=O)CC[C@H]2[C@@H]3C=C(Cl)C4=CC(=O)[C@@H]5C[C@@H]5[C@]4(C)[C@H]3CC[C@@]21C [Cyproterone acetate] | -0.0623
16 | Clc1ccc(CSC(Cn2ccnc2)c2ccc(Cl)cc2Cl)cc1 (stereo not given) [Sulconazole nitrate] | -0.291
17 | CN(C)CCN(Cc1ccccc1)c1ccccn1 [Tripelennamine hydrochloride] | -0.0312
18 | CC1CNc2c(cccc2S(=O)(=O)N[C@@H](CCCNC(=N)N)C(=O)N2CC[C@@H](C)C[C@@H]2C(=O)O)C1 (stereo not given in full) [Argatroban] | -0.0206
19 | CN1C(=O)CC(c2ccccc2)C1=O (stereo not given) [Phensuximide] | 0.0795
20 | Nc1ccn([C@@H]2O[C@H](CO)[C@@H](O)C2(F)F)c(=O)n1 [Gemcitabine] | -0.556
21 | CC(=O)O[C@@]12CO[C@@H]1C[C@H](O)[C@@]1(C)C(=O)[C@H](O)C3=C(C)[C@@H](OC(=O)[C@H](O)[C@@H](NC(=O)OC(C)(C)C)c4ccccc4)C[C@@](O)([C@@H](OC(=O)c4ccccc4)[C@H]21)C3(C)C [Docetaxel] | 0.243
22 | N=C(N)NC(=O)Cc1c(Cl)cccc1Cl [Guanfacine hydrochloride] | -0.0529
23 | CC(=O)[C@H]1CC[C@H]2[C@@H]3CCC4=CC(=O)CC[C@]4(C)[C@H]3CC[C@]12C [Progesterone] | -0.224

Row | Structure (SMILES) | log
24 | CN(C)CC/C=C1/c2ccccc2Sc2ccc(Cl)cc21 [Chlorprothixene hydrochloride] | 0.0849
25 | NC(Cc1cc(I)c(Oc2cc(I)c(O)c(I)c2)c(I)c1)C(=O)O (stereo not given) [Thyroxine (L)] | -0.305
26 | CN(C)CCOC(c1ccccc1)c1ccccc1 [Diphenhydramine hydrochloride] | 0.127
27 | COc1ccc2[nH]c([S+]([O-])Cc3ncc(C)c(OC)c3C)nc2n1 (stereo not given) [Tenatoprazole] | -0.102
28 | C[C@]12CC[C@@H]3c4ccc(O)cc4CC[C@H]3[C@@H]1CC[C@@H]2O [Estradiol-17 beta] | -0.597
29 | CCCN(CCC)S(=O)(=O)c1ccc(C(=O)O)cc1 [Probenecid] | 0.0878
30 | CCCc1cc(=O)[nH]c(=S)[nH]1 [Propylthiouracil] | 0.0157
31 | COc1ccc(CCN(C)CCCC(C#N)(c2ccc(OC)c(OC)c2)C(C)C)cc1OC (stereo not given) [Verapamil hydrochloride] | 0.21
32 | C[N+]1(CCCCC[N+]2(C)CCCC2)CCCC1 [Pentolinium bitartrate] | 0.0452
33 | Oc1ncnc2[nH]ncc12 [Allopurinol] | 0.187
34 | CNCCCC1c2ccccc2C=Cc2ccccc21 [Protriptyline hydrochloride] | 0.0878
35 | CCCCCCC[N+](CC)(CC)CCCCc1ccc(Cl)cc1 [Clofilium tosylate] | 0.00719
36 | C[C@]12CCC(=O)C=C1CC[C@@H]1[C@@H]2[C@@H](O)C[C@@]2(C)[C@H]1CC[C@]2(O)C(=O)CO [Hydrocortisone base] | -0.0288
37 | CN[C@@H]1[C@H](O[C@H]2[C@H](O[C@H]3[C@H](O)[C@@H](O)[C@H](N=C(N)N)[C@@H](O)[C@@H]3N=C(N)N)O[C@@H](C)[C@]2(O)C=O)O[C@@H](CO)[C@H](O)[C@H]1O [Streptomycin sulfate] | -0.452
38 | Nc1nc(Cl)nc2c1ncn2[C@H]1C[C@H](O)[C@@H](CO)O1 [Cladribine] | -0.834
39 | OCCOCCN1CCN(C2=Nc3ccccc3Sc3ccccc32)CC1 [Quetiapine] | 0.0562
40 | CC1(C)S[C@@H]2[C@H](NC(=O)[C@H](N)c3ccc(O)cc3)C(=O)N2[C@H]1C(=O)O [Amoxicillin] | 0.093
41 | CCC(=O)O[C@@H](O[P@](=O)(CCCCc1ccccc1)CC(=O)N1C[C@H](C2CCCCC2)C[C@H]1C(=O)O)C(C)C [Fosinopril] | 0.0542
42 | COc1cccc2c1C(=O)c1c(O)c3c(c(O)c1C2=O)C[C@@](O)(C(=O)CO)C[C@@H]3O[C@H]1C[C@H](N)[C@H](O)[C@H](C)O1 [Doxorubicin hydrochloride] | -0.865
43 | CCCCC(=O)O[C@H]1CC[C@H]2[C@@H]3CCc4cc(O)ccc4[C@H]3CC[C@]12C [Estradiol Valerate] | -0.54
44 | N=C(N)c1ccc(OCCCCCOc2ccc(C(=N)N)cc2)cc1 [Pentamidine isethionate] | -0.0196
45 | Fc1ccc(C(c2ccc(F)cc2)N2CCN(C/C=C/c3ccccc3)CC2)cc1 [Flunarizine dihydrochloride] | 0.0503

Quoted from the listing.
Value of CNCCCC1c2ccccc2C=Cc2ccccc21 [Protriptyline hydrochloride] under log: 0.0878
Value of C[C@]12CCC(=O)C=C1CC[C@@H]1[C@@H]2[C@@H](O)C[C@@]2(C)[C@H]1CC[C@]2(O)C(=O)CO [Hydrocortisone base] under log: -0.0288
Value of CN(C)CC/C=C1/c2ccccc2Sc2ccc(Cl)cc21 [Chlorprothixene hydrochloride] under log: 0.0849
